According to PubChem BioAssay AID330 (DTP/NCI, 2004):
The list does not hold the whole screen: it is rich in T/C values a quarter to a half above the control, in often repeated tests (any T/C) and in doses without a T/C. Further doses and runs are listed elsewhere. T/C gives the treated animals as a percentage of the vehicle group. Some doses have a count of surviving animals in place of a T/C: the source holds a T/C of zero for them, seemingly a mark for toxic or unscored doses. Some doses without a T/C left all or most animals alive at the check, yet need not have been tolerated: survival well below the control is almost never listed, so the zero probably covers shortened survival too. Survivors were counted at the toxicity check, usually on the fifth day, unless a day is given; later deaths do not show. Schedules are NCI's codes, taken here to give the interval after Q, in days (D) or hours (H), and the number of doses after X. Some molecules as drawn cover several salts, stereoisomers or complexes of the source; a dose is that of the sample tested. For survival time, the PubChem record calls one and a half times the control and up active, and a quarter to a half above the control has no call in these data; cut-offs in other NCI protocols can differ. Some doses were run more than once; the results are listed from low to high. Some T/C values carry the count of animals alive at the toxicity check (mostly the fifth day); where none is given, no animal had died by that day.

Tested on: P388 leukemia ip, CD2F1 mice, survival T/C
Experiment: NCI In Vivo Anticancer Drug Screen. Data for tumor model P388 Leukemia (intraperitoneal) in CD2F1 (CDF1) mice
Settings: T/C endpoint: median survival time, higher T/C = longer survival
[1] = dose: 25.0 mg/kg/injection, schedule: Q01DX009 (ip), vehicle: Klucel (hydroxypropylcellulose) (HPC)
[2] = dose: 50.0 mg/kg/injection, schedule: Q01DX005 (ip), vehicle: Klucel (hydroxypropylcellulose) (HPC)
[3] = dose: 100.0 mg/kg/injection, schedule: Q01DX005 (ip), vehicle: Klucel (hydroxypropylcellulose) (HPC)
[4] = dose: 200.0 mg/kg/injection, schedule: Q01DX005 (ip), vehicle: Klucel (hydroxypropylcellulose) (HPC)
[5] = dose: 200.0 mg/kg/injection, schedule: Q01DX009 (ip), vehicle: saline with Tween-80
[6] = dose: 50.0 mg/kg/injection, schedule: Q01DX009 (ip), vehicle: saline with Tween-80
[7] = dose: 25.0 mg/kg/injection, schedule: Q01DX009 (ip), vehicle: saline with Tween-80
[8] = dose: 100.0 mg/kg/injection, schedule: Q01DX009 (ip), vehicle: saline
[9] = dose: 100.0 mg/kg/injection, schedule: Q01DX009 (ip), vehicle: Klucel (hydroxypropylcellulose) (HPC)
[10] = dose: 200.0 mg/kg/injection, schedule: Q01DX009 (ip), vehicle: Klucel (hydroxypropylcellulose) (HPC)
[11] = dose: 240.0 mg/kg/injection, schedule: Q01DX005 (ip), vehicle: Klucel (hydroxypropylcellulose) (HPC)

C[N+](C)(C)CC(C[N+](C)(C)C)C(=O)c1ccccc1
survivor count [1]: 3 of 6 | survivor count [2]: 0 of 6 | survivor count [3]: 0 of 6 | survivor count [4]: 0 of 6

O=C1C(Cl)=C(n2c(=O)oc3ccccc32)C(=O)c2ccccc21
survivor count [5]: 3 of 6

Cc1ccnc(N=C2N=C(Nc3cc(C)ccn3)c3ccccc32)c1
survivor count [6]: 6 of 6

Cc1c2ccncc2c(C)c2c1[nH]c1ccc(O)cc12
T/C (dose: 1.56 mg/kg/injection, schedule: Q01DX009 (ip), vehicle: suspension in saline): 138 % of control [4 of 6 alive] | T/C (dose: 3.12 mg/kg/injection, schedule: Q01DX009 (ip), vehicle: saline): 138 % of control [4 of 6 alive] | T/C (dose: 3.12 mg/kg/injection, schedule: Q01DX009 (ip), vehicle: suspension in saline): 148 % of control | survivor count (dose: 25.0 mg/kg/injection, schedule: Q01DX009 (ip), vehicle: saline): 6 of 6

CN(C)C1CC/C=C/CC/C=C/CC[C@H]1O (mixture of isomers)
survivor count (dose: 100.0 mg/kg/injection, schedule: Q01DX005 (ip), vehicle: saline with Tween-80): 2 of 5 | survivor count (dose: 200.0 mg/kg/injection, schedule: Q01DX005 (ip), vehicle: saline with Tween-80): 0 of 5

c1ccc(CN2CSC3CCCCC32)cc1 (stereo not drawn)
T/C (dose: 200.0 mg/kg/injection, schedule: Q01DX005 (ip), vehicle: saline): 128 % of control

N#Cc1ccc(N=Cc2ccc(C=Nc3ccc(C#N)c(C#N)c3)cc2)cc1C#N
survivor count [6]: 6 of 6

O=C1CC(c2ccc(Cl)cc2Cl)Oc2ccc(Cl)cc21 (stereo not drawn)
survivor count [7]: 6 of 6

CC1C(=O)c2cc3c(cc2CCN(C)Cc2c1ccc1c2OCO1)OCO3 (stereo not drawn)
survivor count (dose: 20.0 mg/kg/injection, schedule: Q01DX009 (ip), vehicle: saline with Tween-80): 2 of 6 | survivor count [7]: 6 of 6 | survivor count (dose: 40.0 mg/kg/injection, schedule: Q01DX009 (ip), vehicle: saline with Tween-80): 0 of 6 | survivor count (dose: 100.0 mg/kg/injection, schedule: Q04DX003 (ip), vehicle: saline with Tween-80): 3 of 6

C(=C\c1ccco1)/c1ccnnc1
survivor count [8]: 2 of 6 | survivor count (dose: 200.0 mg/kg/injection, schedule: Q01DX009 (ip), vehicle: saline): 0 of 6

CCCCN(CCCC)C1CCC(Nc2ccnc3cc(Cl)ccc23)CC1 (stereo not drawn)
survivor count [4]: 6 of 6

COC1(OC)C2C=CC1CC2
T/C (dose: 100.0 mg/kg/injection, schedule: Q01DX009 (ip), vehicle: saline with Tween-80): 131 % of control | T/C [5]: 127 % of control

CSc1nc(COC(=O)NC(C)C)c(COC(=O)NC(C)C)n1C
T/C (dose: 25.0 mg/kg/injection, schedule: Q01DX005 (ip), vehicle: Klucel + Tween-80): 125 % of control | T/C (dose: 50.0 mg/kg/injection, schedule: Q01DX005 (ip), vehicle: Klucel + Tween-80): 130 and 134 % of control | survivor count (dose: 400.0 mg/kg/injection, schedule: Q01DX005 (ip), vehicle: Klucel + Tween-80): 6 of 6

COc1c(CO)c2c(c(OC)c1OC)-c1ccc(OC)c(=O)cc1[C@@H](NC(C)=O)CC2
T/C (dose: 12.5 mg/kg/injection, schedule: Q01DX009 (ip), vehicle: Klucel (hydroxypropylcellulose) (HPC)): 136 % of control | survivor count [9]: 4 of 6 | survivor count [10]: 2 of 6

CC(c1ccccc1)C1CCN(C)CC1 (stereo not drawn)
survivor count (dose: 50.0 mg/kg/injection, schedule: Q04DX002 (ip), vehicle: saline): 6 of 6 | survivor count (dose: 100.0 mg/kg/injection, schedule: Q04DX002 (ip), vehicle: saline): 1 of 6 | survivor count (dose: 200.0 mg/kg/injection, schedule: Q04DX002 (ip), vehicle: saline): 0 of 6 | survivor count (dose: 400.0 mg/kg/injection, schedule: Q04DX002 (ip), vehicle: saline): 0 of 6

O=C(NP1(=O)NCc2ccccc2CN1)OC1CCCCC1
survivor count [2]: 5 of 5 | survivor count [3]: 5 of 5 | survivor count [4]: 4 of 4

O=S(=O)(c1cc(Cl)c(Cl)cc1Cl)N(CCCCCN(S(=O)(=O)c1cc(Cl)c(Cl)cc1Cl)S(=O)(=O)c1cc(Cl)c(Cl)cc1Cl)S(=O)(=O)c1cc(Cl)c(Cl)cc1Cl
survivor count [11]: 5 of 6

CC(=O)SCC1C(=O)CC(C)(C)CC1=O
survivor count (dose: 100.0 mg/kg/injection, schedule: Q04DX003 (ip), vehicle: Klucel (hydroxypropylcellulose) (HPC)): 0 of 6 | survivor count (dose: 400.0 mg/kg/injection, schedule: Q04DX003 (ip), vehicle: Klucel (hydroxypropylcellulose) (HPC)): 0 of 6

COc1ccc(C2C(C(=O)NCc3ccccc3)=C(C)NC(C)=C2C(=O)NCc2ccccc2)cc1OC
survivor count (dose: 120.0 mg/kg/injection, schedule: Q01DX005 (ip), vehicle: Klucel (hydroxypropylcellulose) (HPC)): 6 of 6 | survivor count [11]: 6 of 6

C=CC(C)(C)c1[nH]c2ccccc2c1CC1NC(=O)C(C)NC1=O (stereo not drawn)
survivor count [1]: 6 of 6

O[C@H](c1cc(C(F)(F)F)nc2c(C(F)(F)F)cccc12)[C@@H]1CCCCN1
survivor count [6]: 4 of 6

CC(C)([NH-])CO.CC(C)([NH-])CO.[Cl][Cd][Cl]
survivor count (dose: 12.5 mg/kg/injection, schedule: Q01DX009 (ip), vehicle: saline): 6 of 6

CCOC(=O)C1=C(Nc2ccc(OC)cc2)C(N)=NC1=N
T/C (dose: 50.0 mg/kg/injection, schedule: Q01DX009 (ip), vehicle: suspension in saline): 144 % of control | survivor count (dose: 200.0 mg/kg/injection, schedule: Q01DX009 (ip), vehicle: suspension in saline): 2 of 6

O=NN(CCCl)C(=O)Nc1c[nH]c2ccccc12
T/C [1]: 135 % of control

CC1OC2CC(=O)OC2C2=C1C(=O)c1cc(-c3cc(O)c4c(c3)C(=O)C3=C(C4=O)C4OC(=O)CC4OC3C)cc(O)c1C2=O (stereo not drawn)
survivor count (dose: 7.6 mg/kg/injection, schedule: Q01DX005 (ip), vehicle: DMSO): 3 of 6

CCCCOc1cccc2c(NCCNc3c4ccccc4nc4c(OCCCC)cccc34)c3ccccc3nc12
survivor count (dose: 20.0 mg/kg/injection, schedule: Q01DX009 (ip), vehicle: other): 2 of 6

CC12CCC(C/C1=N\[N+](=O)[O-])C2(C)C (stereo not drawn)
survivor count [8]: 3 of 6

COC1=C(N)C(=O)c2ncccc2C1=O
survivor count (dose: 2.0 mg/kg/injection, schedule: Q01DX009 (ip), vehicle: DMSO): 6 of 6 | survivor count [7]: 2 of 6 | survivor count (dose: 32.0 mg/kg/injection, schedule: Q01DX009 (ip), vehicle: DMSO): 0 of 6

O=C1Nc2ccccc2/C1=C/c1ccc(Cl)c(Cl)c1
survivor count (dose: 50.0 mg/kg/injection, schedule: Q01DX009 (ip), vehicle: Klucel (hydroxypropylcellulose) (HPC)): 6 of 6 | survivor count [9]: 6 of 6 | survivor count [10]: 3 of 6

CC(=O)NNC(=O)c1ccc2ccccc2n1
survivor count (dose: 200.0 mg/kg/injection, schedule: Q01DX009 (ip), vehicle: saline sonified): 4 of 6
